# Primary screen of a compound library

The filed quantity is “Percent Effect” (%).
How 0% and 100% were set is not recorded. Most values in the screen are low, and negative values occur.
The compounds are a random part of those screened.
Two or more numbers in one place are separate tests of the same structure; such repeats can differ widely.

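Viability assay of Plasmodium falciparum sporozoites; the read-out is not stated. The concentration is filed as 10 mM, unlikely as a test dose, so the dose is not known. Direction is inferred from retests: higher values go with lower viability. Strong results were mostly tested again. About 34,000 compounds were tested under these conditions; 0.84% (about 280) showed 50% or more at least once.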

Compound	Percent Effect
O=C(NCc1ccccc1)N1CCC2(CC(=O)N(c3ccsc3)C2)C1 (stereo unspecified)	-19.39
COCC(=O)N1CCn2c(Cn3cncn3)cnc2C1C (stereo unspecified)	-2.698
C[C@H](CCO)NS(=O)(=O)c1ccc(Br)cn1	-12.57
CC(=O)N1CCCN(C(=O)NC(C)Cn2cccn2)CC1 (stereo unspecified)	11.72
NC(=O)Nc1cc(F)ccc1SCC(F)F	-0.111
Cc1[nH]c2ccccc2c1-c1ccnc(N[C@@H](C)CO)n1	-1.609
CC(C)COCC1CN(C(=O)c2cscn2)Cc2ncn(C)c21.O=C(O)C(F)(F)F (stereo unspecified)	-0.5254
O=C(c1cc(C2CC2)[nH]n1)N1CCN(Cc2ccccc2)CC1	-0.1751
CC(CNC(=O)N1CCNC(=O)CC1)Cc1cccs1 (stereo unspecified)	-5.325
CC(C)c1nc2c(n1C)CCN(Cc1cccc(C(N)=O)c1)C2	6.856
CN(C)C(=O)c1cccc(CN2CCN(CC(O)C(C)(C)C)CC2)c1 (stereo unspecified)	7.778
COc1ccc(CN2Cc3[nH]nc(C(=O)N(C)C)c3C2)cc1	11.47
CCc1nc(CN2CCN(C(=O)c3cnccn3)CC2)cs1	-2.423
[H][C@]12CC[C@]([H])(CN(Cc3ccccn3)C1)N(Cc1snnc1C)C2	-10.46 & -0.8882
Cc1ccoc1-c1nnc(CNCCn2cccn2)o1	12.75
CS(=O)(=O)NC1CCc2[nH]c(=O)ccc2C1 (stereo unspecified)	15.15
COc1ccc(COCC(=O)NC2CCc3nc(C)cn3C2)cc1 (stereo unspecified)	-24.51
Cc1ccc(CN(Cc2cc(=O)n3cccc(C)c3n2)C(C)C)o1	-1.221
CN(CC(=O)N1CCCC1c1noc(C2CC2)n1)S(C)(=O)=O (stereo unspecified)	-45.19 & -36.59
[H][C@]12CN(c3ccccn3)CCN1C[C@H](CO)[C@H]2c1ccccc1	-4.306
Fc1ccc(Nc2ccc(C3CCN(Cc4ncc[nH]4)CC3)nc2)nc1	4.756
CCN1CCOCC12CCN(C(=O)Cc1ccccc1)CC2.O=C(O)C(F)(F)F	-0.5945
Cn1nc(CNc2ncccn2)c2c1CN(c1cnccn1)CC2	4.378
COc1ccc(C2CCCN2C(=O)NCCNc2ncccn2)cc1 (stereo unspecified)	2.715
Cc1cccc(-c2noc(CN3CCOCC3C)n2)c1 (stereo unspecified)	5.079
Cc1ncsc1C(=O)N1CCC(O)(CN2CCc3ccccc3C2)C1 (stereo unspecified)	11.88
CCn1c(CN(C)C(=O)c2ccc(N(C)C)nc2)nc2ccccc21	-12.57
Cn1ncc2c(=O)[nH]c(CN3CCCC3c3ccccc3Cl)nc21 (stereo unspecified)	3.873
COCC1CC2(CCN(Cc3cnn(C)c3)CC2)CN1C(C)C.O=C(O)C(F)(F)F.O=C(O)C(F)(F)F (stereo unspecified)	2.125
O=C(NCC1CC1)C1=NOC2(CCN(S(=O)(=O)Cc3ccccc3)C2)C1 (stereo unspecified)	-3.406
Cc1ncc2c(n1)CN(CC(=O)Nc1cccnc1)CC2	8.184
CC(=O)N1CCCN(C(=O)NCCOc2ccc3c(c2)CCC3)CC1	10.19
COc1cccc(CN2CC(O)CN(S(C)(=O)=O)CC2=O)c1OC (stereo unspecified)	-29.43
CCOC(=O)C1CCN(Cc2csc(C(C)(C)C)n2)CC1	-7.977
CCn1cnnc1CNC(=O)N1CCN(c2nccs2)CC1	2.147
O=C(c1ccccc1)N(CC1CC1)c1cccnc1	-5.037
[H][C@]12CCN(C(N)=O)[C@@]1([H])CC[C@H](COCc1csc(C)n1)O2	12.63
COCC1CN(Cc2ccc(C)o2)Cc2cn(C)nc21.O=C(O)C(F)(F)F.O=C(O)C(F)(F)F (stereo unspecified)	7.251
CN(C)S(=O)(=O)N1CCC2(CCCN(Cc3ccc(F)cc3)C2=O)C1 (stereo unspecified)	-22.36
Cc1cc(C(F)(F)F)c2c(C3CCCN(C(=O)C4CC4)C3)noc2n1 (stereo unspecified)	4.755
Cc1ccc(CN(Cc2nc3c(cnn3C)c(=O)[nH]2)C2CC2)o1	14.44
O=C(O)C(F)(F)F.[H][C@]12OCCC[C@]1([H])N(C(=O)COC)C[C@H]2OCc1cccnc1	-7.543
CC(=O)NCCc1cc2nc(-c3ccncc3)ccn2n1	6.096
COCCN1CCC2(CC1)CN(C(=O)Cc1cccnc1)CCO2.O=C(O)C(F)(F)F.O=C(O)C(F)(F)F	6.392
CCc1noc(C(C)N2CCC(NC(=O)c3ccc(C)s3)CC2)n1 (stereo unspecified)	3.272
CC(C)Oc1ccc(C(=O)N2CC[C@H](O)[C@@H](n3ccnc3)CC2)cc1	-3.598
Cc1nnc2n1CC(CNCc1nc(-c3ccsc3)no1)CC2 (stereo unspecified)	0.111
CCN(CC)C(=O)C1CCC2(CCNCC2)O1.Cl (stereo unspecified)	-12.97
Cc1noc(C)c1C(=O)N1CCC(Nc2cccnn2)CC1	8.88
O=C1Nc2ccccc2C1C1CCN(C(=O)C2CC2)CC1 (stereo unspecified)	-4.448
Cc1nnc(N(CCC#N)CCC#N)s1	-12.81
CC(C)c1nccn1-c1cncc(C2CCCN2Cc2cccnc2)n1 (stereo unspecified)	-8.184
COc1ccc(C2Nc3cc(Cl)ccc3C3=NCCN32)cc1OC (stereo unspecified)	-6.574
O=C(C1NCCc2[nH]cnc21)N1CCC2(C=Cc3ccccc32)CC1 (stereo unspecified)	-27.23
Cc1ccccc1CC(=O)N1C[C@@H](O)[C@H](N2CCOCC2)C1	5.12
Cc1nn(C)c(N(C)C)c1CNCCNS(C)(=O)=O	7.568
O=C(CNc1ccc(OC2CCOC2)cc1)NCc1ccc(F)cc1 (stereo unspecified)	-6.267
CC(C)(C)c1nnc(CN2CCn3c(nnc3C3CC3)C2)o1	-17.4
COc1cccc(CN2CCCC(Nc3cccc(F)c3)C2)c1O (stereo unspecified)	-14.76
CCn1c(C)nnc1CN(C)C1CCN(CCOc2ccccc2)C1 (stereo unspecified)	14.59
CC(C)c1nc(C2CCCN2CC(=O)Nc2ccc(Cl)cn2)no1 (stereo unspecified)	2.206
Cc1ccc(N2CCc3ncc(CNc4ccccn4)n3CC2)nn1	2.719
[H][C@@]12CCCO[C@]1([H])[C@@H](N(C)Cc1cncnc1)CN2Cc1ccco1	-5.122
CC(=O)c1cc(C(=O)N2CCN(C)Cc3ccccc32)n(C)c1	10.35
CN(C)c1ncc(-c2cc(C(=O)O)n(CC3CC3)c2)cn1	-1.353
CC(C)(C)c1ccn(C2(C(=O)O)CCN(c3nccc(N)n3)CC2)n1	-9.183
[H][C@@]12CCN(c3ncccn3)C[C@]1(C(=O)NCCc1ccccn1)CCO2	1.664
CCn1cnnc1CNC(=O)N1CCCCCC1	4.524
CC(C)n1cc(CN2CCCN(C(=O)C3CCCN3C)CC2)cn1 (stereo unspecified)	21.19
CCn1ccc2ccnc(CC3CN(C(=O)Cn4ccnc4C)C3)c21.O=CO	12.05
O=C(Nc1nc2c(s1)CN(S(=O)(=O)C1CC1)CC2)c1c(F)cccc1F	11.42 & 8.155 & -25.62
Cc1cnn(CCNCc2nnc(C3CC3)o2)c1	9.956
CCOC(C)c1noc(CN2CCCNCC2)n1 (stereo unspecified)	-7.46
CC1CCc2sc(C(=O)Nc3cnn(C)c3)cc2C1 (stereo unspecified)	-0.355
NC(=O)CN1CCC(Nc2ccnc3ccc(Cl)cc23)CC1	3.885
CC(=O)c1ccc(OCC(C)O)cc1O (stereo unspecified)	7.943
CN(C)C(=O)CNC(=O)c1ccc2ccc(N(C)CC3CC3)n2c1	5.957
Cn1ccnc1C(O)c1ccccc1N1CCN(CC2CCCC2)CC1 (stereo unspecified)	7.507
Cc1ncc(C)c(N2CCCC(CO)(Cc3cccc(Cl)c3)C2)n1 (stereo unspecified)	-14.83
COc1cc(C)ccc1OCCC(=O)N1CCCC1Cn1cccn1 (stereo unspecified)	0.7335
Cc1nc2c(s1)C(N(C)C(=O)NCCCC(C)(C)CO)CCC2 (stereo unspecified)	-12.32
O=C(O)C(F)(F)F.c1ccc(CN2Cc3nccn3CC(Cn3cccn3)C2)nc1 (stereo unspecified)	0.5254
Cc1cc(N(C)C)nc(C2(C)CCCNC2)n1 (stereo unspecified)	6.586
Cc1cccc(NC(=O)[C@@H]2CCCN2Cc2nc(C)c(C)o2)n1	4.167
Cc1nccc(C(=O)N2CCCN(Cc3nccn3C(C)C)CC2)n1	1.661
Cc1cc(N2CCC3(CCCN(CCO)C3=O)C2)nc(C)c1C#N (stereo unspecified)	-3.76
COc1ccc(CN2CCCCC2Cn2nc(C)nc2C)cc1F (stereo unspecified)	-6.685
Cc1ccc(=O)n(CC2(O)CCN(Cc3cnc(N(C)C)nc3)CC2)n1	5.299
Cc1nn2c(N3CCC(O)C3)cc(-c3ccccc3)nc2c1C (stereo unspecified)	-8.513
COc1ccc(NC(=O)NCC(O)c2ccccc2F)c(OC)c1 (stereo unspecified)	14.68
CCS(=O)(=O)N1C[C@@H](O)[C@H](N(C)Cc2ccc(F)cc2)C1	-0.259
O=C(O)C(F)(F)F.[H][C@@]12COC[C@@H](CC(=O)NCCOC)[C@]1([H])CN(CC1CCOCC1)C2	-2.977
Cn1ncc2c1CCCC2NCc1cccc2c1OCCCO2 (stereo unspecified)	3.432 & -35.01 & -13.55

The values are deposited in ChEMBL (CHEMBL3988442, “University of Dundee, Small-Polar-MMV Screening Library” (2021)).